Reference: PubChem BioAssay AID1259254 (NCATS, 2017)

Screen: 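Finding genes that stop cells copying their DNA twice in one cycle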 (primary screen)
System: human HCT116 colorectal cancer cells
Reagent: single siRNA against human genes
Duration: 3 days
Read-out: 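Imaged Hoechst DNA stain sorts each cell into a cycle phase by DNA amount; per plate, G2 fraction set to 0% for non-targeting and 100% for GMNN siRNA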
Scale: G2 robust z-score and G2 cells, % of GMNN control: higher = more G2 cells, more excess DNA replication; raw share of cells in G2: higher = larger share of cells with G2 DNA content
Hit rule: 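An siRNA counts as active if its G2 robust z-score lies at least 5 MADs above the screen median; here such calls match roughly 38% of GMNN control or more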
Shown is a random part of about 59,000 deposited reagents. About 1,550 of them (2.6%) were called active. 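G2 share is only a proxy for re-replication; each gene was hit by three separate siRNAs, and active genes were retested.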 The raw values are shown without normalisation. Reagents against one gene are numbered here. Not stated in the record: the amount of reagent.

| gene symbol | siRNA no. | G2 robust z-score | G2 cells, % of GMNN control | raw share of cells in G2 (%) | activity call |
| --- | --- | --- | --- | --- | --- |
| RPE65 (GeneID 6121) | 1 | -0.69 | -1.89 | 3.96 | inactive |
| RPE65 (GeneID 6121) | 2 | 4.09 | 31.7 | 14.7 | inactive |
| RPE65 (GeneID 6121) | 3 | 0.339 | 5.35 | 6.82 | inactive |
| HOXC9 (GeneID 3225) | 1 | 2.04 | 17.3 | 11.3 | inactive |
| HOXC9 (GeneID 3225) | 2 | 0.772 | 8.4 | 8.88 | inactive |
| HOXC9 (GeneID 3225) | 3 | 2.37 | 19.7 | 11.4 | inactive |
| VWA8 (GeneID 23078) | 1 | -0.432 | -0.0727 | 4.96 | inactive |
| VWA8 (GeneID 23078) | 2 | -0.183 | 1.68 | 4.83 | inactive |
| VWA8 (GeneID 23078) | 3 | 0.177 | 4.21 | 4.75 | inactive |
| TRMT1L (GeneID 81627) | 1 | -0.555 | -0.934 | 2.12 | inactive |
| TRMT1L (GeneID 81627) | 2 | 2.46 | 20.2 | 10.8 | inactive |
| TRMT1L (GeneID 81627) | 3 | 1.93 | 16.5 | 8.36 | inactive |
| TNNC1 (GeneID 7134) | 1 | -1.18 | -5.32 | 3.35 | inactive |
| TNNC1 (GeneID 7134) | 2 | -0.883 | -3.25 | 3.68 | inactive |
| TNNC1 (GeneID 7134) | 3 | 0.141 | 3.96 | 5.92 | inactive |
| NCK1 (GeneID 4690) | 1 | 2.42 | 20 | 13.4 | inactive |
| NCK1 (GeneID 4690) | 2 | -0.0765 | 2.43 | 4 | inactive |
| NCK1 (GeneID 4690) | 3 | -0.238 | 1.3 | 5.86 | inactive |
| MAP4K1 (GeneID 11184) | 1 | 0.017 | 3.09 | 6.55 | inactive |
| MAP4K1 (GeneID 11184) | 2 | -0.0427 | 2.67 | 6.16 | inactive |
| MAP4K1 (GeneID 11184) | 3 | -0.859 | -3.08 | 2.7 | inactive |
| TRAF3 (GeneID 7187) | 1 | 1.14 | 11 | 10.3 | inactive |
| TRAF3 (GeneID 7187) | 2 | -0.365 | 0.4 | 4.61 | inactive |
| TRAF3 (GeneID 7187) | 3 | 0.121 | 3.82 | 5.68 | inactive |
| SLC52A1 (GeneID 55065) | 1 | 0.462 | 6.22 | 5.18 | inactive |
| SLC52A1 (GeneID 55065) | 2 | 4.16 | 32.2 | 17.4 | inactive |
| SLC52A1 (GeneID 55065) | 3 | -0.272 | 1.06 | 4.89 | inactive |
| TRAFD1 (GeneID 10906) | 1 | 1.72 | 15.1 | 10.9 | inactive |
| TRAFD1 (GeneID 10906) | 2 | -0.162 | 1.83 | 4.89 | inactive |
| TRAFD1 (GeneID 10906) | 3 | 0.528 | 6.68 | 5.67 | inactive |
| OR7G2 (GeneID 390882) | 1 | -1.09 | -4.71 | 2.1 | inactive |
| OR7G2 (GeneID 390882) | 2 | 1.03 | 10.2 | 7.58 | inactive |
| OR7G2 (GeneID 390882) | 3 | -0.178 | 1.71 | 5.5 | inactive |
| ZNF487 (GeneID 642819) | 1 | -0.373 | 0.342 | 3.77 | inactive |
| ZNF487 (GeneID 642819) | 2 | 0.78 | 8.46 | 6.31 | inactive |
| ZNF487 (GeneID 642819) | 3 | 0.384 | 5.67 | 4.8 | inactive |
| RAP1BL (GeneID 643752) | 1 | 1.22 | 11.5 | 8.02 | inactive |
| RAP1BL (GeneID 643752) | 2 | -0.375 | 0.326 | 3.24 | inactive |
| RAP1BL (GeneID 643752) | 3 | 0.248 | 4.71 | 4.97 | inactive |
| GK (GeneID 2710) | 1 | 0.381 | 5.65 | 6.02 | inactive |
| GK (GeneID 2710) | 2 | -0.73 | -2.17 | 4.89 | inactive |
| GK (GeneID 2710) | 3 | -0.272 | 1.06 | 5.77 | inactive |
| AKAP3 (GeneID 10566) | 1 | -1.04 | -4.32 | 2.45 | inactive |
| AKAP3 (GeneID 10566) | 2 | 2.19 | 18.3 | 13.7 | inactive |
| AKAP3 (GeneID 10566) | 3 | -0.741 | -2.25 | 4.72 | inactive |
| GNL2 (GeneID 29889) | 1 | -0.14 | 1.98 | 4.64 | inactive |
| GNL2 (GeneID 29889) | 2 | -0.000619 | 2.96 | 5.17 | inactive |
| GNL2 (GeneID 29889) | 3 | 1.28 | 12 | 11.6 | inactive |
| ZFR2 (GeneID 23217) | 1 | 0.216 | 4.48 | 6.74 | inactive |
| ZFR2 (GeneID 23217) | 2 | -0.542 | -0.843 | 3.79 | inactive |
| ZFR2 (GeneID 23217) | 3 | -0.499 | -0.547 | 2.97 | inactive |
| DYRK2 (GeneID 8445) | 1 | -0.588 | -1.17 | 5.22 | inactive |
| DYRK2 (GeneID 8445) | 2 | -0.783 | -2.54 | 4.55 | inactive |
| DYRK2 (GeneID 8445) | 3 | -0.591 | -1.19 | 3.61 | inactive |
| XPNPEP1 (GeneID 7511) | 1 | 3.23 | 25.7 | 14.5 | inactive |
| XPNPEP1 (GeneID 7511) | 2 | 1.31 | 12.2 | 9.23 | inactive |
| XPNPEP1 (GeneID 7511) | 3 | 0.207 | 4.42 | 5.56 | inactive |
| OR2A2 (GeneID 442361) | 1 | 0.322 | 5.23 | 5.64 | inactive |
| OR2A2 (GeneID 442361) | 2 | 0.749 | 8.24 | 6.54 | inactive |
| OR2A2 (GeneID 442361) | 3 | 0.362 | 5.51 | 4.99 | inactive |
| MIS18A (GeneID 54069) | 1 | 0.11 | 3.74 | 4.94 | inactive |
| MIS18A (GeneID 54069) | 2 | 0.792 | 8.54 | 7.87 | inactive |
| MIS18A (GeneID 54069) | 3 | 3.04 | 24.4 | 11.2 | inactive |
| DRG1 (GeneID 4733) | 1 | 0.187 | 4.28 | 7.17 | inactive |
| DRG1 (GeneID 4733) | 2 | -0.0991 | 2.27 | 6.24 | inactive |
| DRG1 (GeneID 4733) | 3 | 1.02 | 10.1 | 6.53 | inactive |
| CYP1B1-AS1 (GeneID 285154) | 1 | 1.32 | 12.3 | 8.11 | inactive |
| CYP1B1-AS1 (GeneID 285154) | 2 | -0.112 | 2.18 | 3.89 | inactive |
| CYP1B1-AS1 (GeneID 285154) | 3 | 2.64 | 21.5 | 9.81 | inactive |

In a second layout: 8 of the entries above
gene symbol | siRNA no. | G2 robust z-score | G2 cells, % of GMNN control | raw share of cells in G2 (%) | activity call
TNNC1 (GeneID 7134) | 3 | 0.141 | 3.96 | 5.92 | inactive
NCK1 (GeneID 4690) | 1 | 2.42 | 20 | 13.4 | inactive
NCK1 (GeneID 4690) | 2 | -0.0765 | 2.43 | 4 | inactive
NCK1 (GeneID 4690) | 3 | -0.238 | 1.3 | 5.86 | inactive
MAP4K1 (GeneID 11184) | 1 | 0.017 | 3.09 | 6.55 | inactive
MAP4K1 (GeneID 11184) | 2 | -0.0427 | 2.67 | 6.16 | inactive
MAP4K1 (GeneID 11184) | 3 | -0.859 | -3.08 | 2.7 | inactive
TRAF3 (GeneID 7187) | 1 | 1.14 | 11 | 10.3 | inactive
